Data: patent US20250129170A1
These are yes or no findings as the source states them, for the method shown. Some entries that bind do so weakly or less than the wild type.

Chains of the proteins cited; added tags and fusions are not shown. Lines headed by an entry give the natural chain unless they say otherwise; changes in a name come on top. Residues count along the entry.
UniProt P19235, residues 25-250: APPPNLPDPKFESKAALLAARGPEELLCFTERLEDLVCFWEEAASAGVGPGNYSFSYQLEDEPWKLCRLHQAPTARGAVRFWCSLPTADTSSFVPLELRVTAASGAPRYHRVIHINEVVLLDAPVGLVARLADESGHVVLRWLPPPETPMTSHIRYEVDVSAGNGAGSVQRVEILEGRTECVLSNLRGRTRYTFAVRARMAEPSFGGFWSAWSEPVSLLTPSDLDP
UniProt P32927, residues 17-443: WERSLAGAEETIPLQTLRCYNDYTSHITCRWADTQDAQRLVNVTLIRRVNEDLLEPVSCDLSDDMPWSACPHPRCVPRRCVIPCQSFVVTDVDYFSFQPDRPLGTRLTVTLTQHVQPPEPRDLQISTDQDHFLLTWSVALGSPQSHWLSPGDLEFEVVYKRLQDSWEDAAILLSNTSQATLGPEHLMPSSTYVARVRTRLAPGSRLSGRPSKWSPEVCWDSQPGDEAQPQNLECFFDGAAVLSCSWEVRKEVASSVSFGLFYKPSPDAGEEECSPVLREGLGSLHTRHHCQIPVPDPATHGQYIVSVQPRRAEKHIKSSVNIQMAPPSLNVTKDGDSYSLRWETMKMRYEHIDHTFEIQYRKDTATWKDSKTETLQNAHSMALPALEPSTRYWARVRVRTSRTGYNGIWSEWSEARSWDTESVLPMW

Columns and labels:
[1] = biological target: recombinant hEPOR-Fc (SinoBiological, Cat #10707-H02H) (human) (UniProt P19235); assay: B-cell sorting, labelled hEPOR-Fc and hCD131-Fc
[2] = biological target: recombinant hEPOR-Fc (SinoBiological, Cat #10707-H02H) (human) (UniProt P19235); assay: B cells sorted by flow cytometry on labeled hEPOR-Fc, single cell sequencing
[3] = biological target: hCD131-Fc (IME021, inhouse) (human) (UniProt P32927); assay: B-cell sorting, labelled hEPOR-Fc and hCD131-Fc

Binder | binding [1] | binding [2] | binding [3]
clonotype254 (EPOR/CD131 binder, Table 8) (antibody, V domains shown) VH: EVQLVESGGGVVRPGGSLRLSCAASGFTFDDYGMSWVRQAPGKGLEWVSGINWNGGSTGYADSVKGRFTISRDNAKNSLYLQMNSLRAEDTALYYCARKGNWNSFDYWGQGTLVTVSS VL: QSALTQPPSASGSPGQSVTISCTGTSSDVGGYNYVSWYQQHPGKAPKLMIYEVSKRPSGVPDRFSGSKSGNTASLTVSGLQAEDEADYYCSSYAGSNNWVFGGGTKLTVL | binds |  | 
anti-EPOR antibody clonotype400 (antibody, V domains shown) VH: QVQLVQSGAEVKKPGASVKVSCKASGYTFTSYDINWVRQATGQGLEWMGWMNPNSGNTGYAQKFQGRVTMTRNTSISTAYMELSSLRSEDTAVYYCARVAFDIWGQGTMVTVSS VL: QSALTQPASVSGSPGQSITISCTGTSSDVGGYNYVSWYQQHPGKAPKLMIYEVSNRPSGVSNRFSGSKSGNTASLTISGLQAEDEADYYCSSYTSSSTVFGGGTKLTVL |  | binds | 
anti-EPOR antibody clonotype427 (antibody, V domains shown) VH: QVQLVQSGAEVKKPGASVKVSCKASGYTFTSYGISWVRQAPGQGLEWMGWISAYNGNTNYAQRLQGRVTMTTDTSTSTAYMELRSLISDDTAVYYCARNHYYYLDVWGKGTTVTVSS VL: SYELTQPSSVSVSPGQTARITCSGDVLAKKYARWFQQKPGQAPVLVIYKDSERPSGIPERFSGSSSGTTVTLTISGAQVEDEADYYCYSAADNNRVFGGGTKLTVL |  | binds | 
anti-EPOR antibody clonotype397 (antibody, V domains shown) VH: QVQLQESGPGLVKPSQTLSLTCTVSGGSISSGGYYWSWIRQHPGKGLEWIGYIYYIGITYYNPSLKSRVTISVDTSKNQFSLKLSSVTAADTAVYYCARAFDYWGQGTLVTVSS VL: SYVLTQPPSVSVPPGKTARITCGGNNVGSKSVHWYQQKPGQAPVLVIYYDTDRPSGIPERFSGSNSGNTATLSISRVEAGDEADYYCQVWDSRSDHVVFGGGTKLTVL |  | binds | 
anti-EPOR antibody clonotype432 (antibody, V domains shown) VH: EVQLVESGGGLVQPGGSLRLSCAASGFTFSSYWMSWVRQAPGKGLEWVANIKQDGSEKYYVDSVKGRFTISRDNAKNSLYLQMNSLRAEDTAVYYCARRIVGAFDYWGQGTLVTVSS VL: SSELTQDPAVSVALGQTVRITCQGDSLRSYYASWYQQKPGQAPVLVIYGKNNRPSGIPDRFSGSSSGNTASLTITGAQAEDEADYYCNSRDSSGNHLVFGGGTKLTVL |  | binds | 
anti-EPOR antibody clonotype424 (antibody, V domains shown) VH: QVQLVESGGGLVKPGGSLRLSCAASGFTFSDYYMSWIRQAPGKGLEWVSYISSSGSTIYYPDSVKGRFTISRDNAKNSLYLQMNSLRAEDTAVYYCARDGAAFDIWGQGTMVTVSS VL: QSALTQPASVSGSPGQSITISCTGTSSDVGGYNYVSWYQQHPGKAPKLMIYDVSKRPSGVSNRFSGSKSGNTASLTISGLQAEDETDYYCCSYAGSSTLVFGGGTKLTVL |  | binds | 

Continued, values first:

binding [1] | binding [2] | binding [3] | Binder
binds |  | binds | clonotype241 (EPOR/CD131 binder, Table 8) (antibody, V domains shown) VH: QVQLVQSGAEVKKPGASVKVSCKASGYTFTSYYIHWVRQAPGQGLEWMGIINPSGGTTNYAQKFQGRVTMTRDTSTSTVYMELSSLRSEDTAVYYCARGDWGTMDVWGKGTTVTVSS VL: QSALTQPASVSGSPGQSITISCTGTSSDVGNYNYVSWYQQHPGKVPKLMIYEVIYRPSGVSNRFSGSKSGNTASLTISGLQAEDEADYYCTSYTRNNTYVFGSGTKVTVL
binds |  | binds | clonotype242 (EPOR/CD131 binder, Table 8) (antibody, V domains shown) VH: EVQLVESGGGLVQPGGSLRLSCAASGFTFSSYWMSWVRQAPGKGLEWVANIKQDGSEKYYVDSVKGRFTISRDNAKNSLYLQMNSLRAEDTAVYYCARDGTGWFDPWGQGTLVTVSS VL: QSVLTQPPSVSGAPGQRVTISCTGSSSNIGAGYDVHWYQQLPGTAPKLLIYGNSNRPSGVPDRFSGSKSGTSASLAITGLQAEDEADYYCQSYDSSLSGWVFGGGTKLTVL
binds |  | binds | clonotype243 (EPOR/CD131 binder, Table 8) (antibody, V domains shown) VH: QVQLVQSGAEVKKPGASVKVSCKASGYTFTSYGISWVRQAPGQGLEWMGWISAYNGNTNYAQKLQGRVTMTTDTSTSTAYMELRSLRSDDTAVYYCARRGTVVFDYWGQGTLVTVSS VL: QSALTQPASVSGSPGQSITISCTGTSSDVGGYNYVSWYQQHPGKAPKLMIYDVSKRPSGVSNRFSGSKSGNTASLTISGLQAEDEADYYCCSYAGSSTYVVFGGGTKLTVL
 | binds |  | anti-EPOR antibody clonotype431 (antibody, V domains shown) VH: EVQLVESGGGLVKPGGSLRLSCAASGFTFSSYSMNWVRQAPGKGLEWVSSISSSSSYIYYADSVKGRFTISRDNAKNSLYLQMNSLRAEDTAVYYCARDLISSFDYWGQGTLVTVSS VL: SSELTQDPAVSVALGQTVRITCQGDRLRSYYASWYQQKPGQAPVLVIYGKNNRPSGIPDRFSGSSSGNTASLTITGAQAEDEADYHCNSRDSSGNHLVFGGGTKLTVL
 | binds |  | anti-EPOR antibody clonotype445 (antibody, V domains shown) VH: EVQLVESGGGLVKPGGSLRLSCAASGFTFSSYSMNWVRQAPGKGLEWVSSISSSSSYIYYADSVKGRFTISRDNAKNSLYLQMNSLRAEDTAVYYCARDRGATGFDYWGQGTLVTVSS VL: SSELTQDPAVSVALGQTVRITCQGDSLRSYYASWYQQKPGQAPVLVIYGKNNRPSGIPDRFSGSSSGNTASLTITGAQAEDEADYYCNSRDSSGNHWVFGGGTKLTVL
 | binds |  | anti-EPOR antibody clonotype436 (antibody, V domains shown) VH: EVQLVESGGGLIQPGGSLRLSCAASGLTVSTNYMSWVRQAPGKGLEWVSVLYSGGGTYYADSVKGRFTISRDNSKNTLCLQMNSLRAEDTAMYYCARDNWDSYFDYWGQGTLVTVSS VL: QTVVTQEPSLTVSPGGTVTLTCASSTGAVTSGYYPNWFQQKPGQAPRALIYSTSNKHSWTPARFSGSLLGGKAALTLSGVQPEDEAEYYCLLYYGGARVFGGGTKLTVL
 | binds |  | anti-EPOR antibody clonotype407 (antibody, V domains shown) VH: EVQLVESGGGLVKPGGSLRLSCAASGFTFSNAWMSWVRQAPGKGLEWVGRIKSKSDGGTRDYAAPVKGRFTISRDDSKNTLYLQMNSLKTEDTAMFYCTTGGTHWGQGTLVTVSS VL: SYELTQPPSVSVSPGQTARITCSADALPKQYAYWYQQKPGQAPVLVIYKDSERPSGIPERFSGSSSGTTVTLTISGVQAEDEADYYCQSADSSATWVFGGGTKLTVL
 | binds |  | anti-EPOR antibody clonotype409 (antibody, V domains shown) VH: EVQLVESGGGLVKPGGSLRLSCAASGFTFSNAWMSWVRQAPGKGLEWVGRIKSKTDGGTTDYATPVKGRFTISRADSKNTLFLQMSSLKTEDTAVYFCTTGGTNWGQGTLVTVSS VL: SYELTQPPSVSVSPGQTARITCSADALPKQYAYWYQQKPGQAPVVVIYKDSERPSGIPERFSGSSSGTTVTLTISGVQAEDEADYYCQSLDSSGTYWVFGGGTKLTVL
 | binds |  | anti-EPOR antibody clonotype426 (antibody, V domains shown) VH: QIQLVQSGAEMKKPGASVKVSCKASGYTFTNYGISWVRQAPGQGLEWMGWINTYNDKTNFALKVQGRVTMTTDTSTSTAYMELRSLRSDDTAVYYCARDRGYSFDYWGQGTLVTVSS VL: SYELTQPPSVSVSPGQTASITCSGDKLGDKHACWYQQKPGQSPMLVIYQDSKRPSGIPERFSGSNSGNTATLTISGTQPMDEADYYCQAWDSSTFGGGTKLTVL
